Screen size: about 360,000 compounds; about 7,500 (2.1%) were called active. Inconclusive results, whose numbers are uncertain, are shown with a selection of clear calls. Calls follow the shape of the dose curve; as a rule, active = well fitted inhibition curve with a large enough effect; inconclusive = small, poorly fitted or top-dose-only effect, or effect the other way; inactive = flat fitted curve, though single readings scatter. Potencies of inconclusive entries are doubtful fits and often do not repeat.
Test: Nrf2 qHTS screen for inhibitors; also: nearly all actives have a fitted effect of over 60% in size
Conditions: A549 ARE-Fluc reporter, luciferase luminescence, 18-24 h; activity change, negative = inhibition: at 46 µM (top of the series)
In short: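 A549 ARE_Fluc cells, 5000/well, 5% FBS OPTI-MEM; compounds in dose-response, 18-24 h at 37 °C/5% CO2; CellTiter-Fluor viability read (Ex 405/Em 525), then BugLite luciferase luminescence = Nrf2 activity.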
% is scaled to controls: 0 for no effect and ±100 for the full control effect; potency is read from the fitted curve at half-maximal effect.

Compound | Potency | activity change, negative = inhibition
Nn1c(SCc2cccc(C(F)(F)F)c2)nnc1-c1ccco1 | inconclusive: 29.1 µM [falling, single point] | 
Cc1cc(C)c(S(=O)(=O)N2CCCCC2)cc1N(C)S(=O)(=O)c1ccc(Cl)cc1 | inconclusive: 10.3 µM [falling, partial curve] | 
CC(=O)c1cccc(NC(=O)CN2CCc3cc4c(cc3C2C)OCCCO4)c1 (stereo not given) | inconclusive: 20.6 µM [falling, partial curve, poor fit] | 
O=C(Nc1ccc(S(=O)(=O)NCC2CCCO2)cc1)c1ccc(Cl)cc1[N+](=O)[O-] (stereo not given) | inconclusive: 20.6 µM [falling, single point] | 
CCn1c2ccccc2c2cc(NC(=O)COC(=O)Cc3cn4ccsc4n3)ccc21 | inconclusive: 29.1 µM [falling, single point] | 
O=C(Nc1nnc(SCc2ccccc2)s1)c1cc2c(s1)CCCC2 | inconclusive: 9.2 µM [activator, partial curve] | 
CCn1c(=O)n(CC)c2cc(S(=O)(=O)NCCOc3ccccc3)c(C)cc21 | inconclusive: 29.1 µM [falling, single point] | 
Cc1ccc(S(=O)(=O)N2CCN(C(=O)CCCOc3ccc(Cl)cc3C)CC2)cc1 | inconclusive: 18.4 µM [falling, partial curve] | 
CCCOC(=O)CSC1=C(C#N)C(c2ccccc2Cl)CC(=O)N1 (stereo not given) | inconclusive: 29.1 µM [falling, single point] | 
Cc1ccc(N=C2NC(=O)/C(=C/c3cccn3C)S2)c(C)c1 | inconclusive: 29.1 µM [falling, single point] | 
CN1CCN(c2nc3c(=O)[nH]c(N)nc3n2C2OC(CO)C(O)C2O)CC1 (stereo not given) | inconclusive: 29.1 µM [activator, single point] | 
CCCCCn1c(=O)c(-c2nc3ccccc3[nH]2)c(O)c2ccccc21 |  | inactive: 10.9%
N/C(=N\OC(=O)c1csnn1)c1ccc(C(F)(F)F)cc1 |  | inactive: 2.54%
COc1ccc(C)cc1-n1nnnc1SCc1nc2ccccc2c(=O)[nH]1 | inconclusive: 18.4 µM [falling, single point] | 
CCCCNC(=O)C1CCC(Cn2c(=O)c3sccc3n(CC(=O)N3CCCC3)c2=O)CC1 (stereo not given) | inconclusive: 25.9 µM [activator, single point] | 
CCC(C)NS(=O)(=O)c1ccc(S(=O)(=O)N(CCc2ccc(OC)c(OC)c2)Cc2cccs2)cc1 (stereo not given) | inconclusive: 16.4 µM [falling, partial curve, poor fit] | 
O=[N+]([O-])c1cccc(N=Nc2ccc(O)cc2O)c1 | inconclusive: 29.1 µM [falling, single point] | 
Cc1cc(C)n(-c2nc3ccccc3nc2N2CCC(C)CC2)n1 | inconclusive: 18.4 µM [falling, partial curve, poor fit] | 
COc1ccc(C2N(Cc3ccccc3)C(=O)c3ccccc3N2C)cc1COc1ccc(NC(C)=O)cc1 (stereo not given) | inconclusive: 29.1 µM [falling, single point] | 
CSc1nnc(C)c(=O)n1COC(=O)/C=C/c1ccc2c(c1)OCO2 | inconclusive: 1.84 µM [activator, full curve, poor fit] | 

Reprinted at random: 4 entries already listed
Compound | Potency | activity change, negative = inhibition
O=C(Nc1ccc(S(=O)(=O)NCC2CCCO2)cc1)c1ccc(Cl)cc1[N+](=O)[O-] (stereo not given) | inconclusive: 20.6 µM [falling, single point] | 
CSc1nnc(C)c(=O)n1COC(=O)/C=C/c1ccc2c(c1)OCO2 | inconclusive: 1.84 µM [activator, full curve, poor fit] | 
Cc1ccc(N=C2NC(=O)/C(=C/c3cccn3C)S2)c(C)c1 | inconclusive: 29.1 µM [falling, single point] | 
CN1CCN(c2nc3c(=O)[nH]c(N)nc3n2C2OC(CO)C(O)C2O)CC1 (stereo not given) | inconclusive: 29.1 µM [activator, single point] | 

Additional entries follow.

Compound | Potency | activity change, negative = inhibition
CCOC(=O)c1c(C)oc2nc(C)nc(NCc3ccc(OC)cc3OC)c12 | inconclusive: 4.11 µM [activator, partial curve, poor fit] | 
O=C(CSc1nncn2c1cc1sccc12)Nc1ccc(Br)cc1F | inconclusive: 29.1 µM [falling, single point] | 
Nc1ccc(N2CCN(c3ncc(C(F)(F)F)cc3Cl)CC2)c(C(F)(F)F)c1 | inconclusive: 18.4 µM [falling, single point] | 
Cc1ccc(C(=O)N2CC(=O)Nc3ccc(C)cc3C2c2ccccc2)cc1 (stereo not given) | inconclusive: 0.206 µM [falling, full curve] | 
CCOC(=O)c1ccc(-c2ccc3c(c2)CCC3)nc1C | inconclusive: 25.9 µM [activator, partial curve, poor fit] | 
CN(Cc1cccs1)C(=O)c1cccc(S(=O)(=O)N2CCCCCC2)c1 |  | inactive: 7.12%
Cc1ccc2nc(-c3ccc(SCC(=O)Nc4nnc(C)s4)nc3)[nH]c2c1 | inconclusive: 2.31 µM [activator, single point] | 
C=CCn1cccc(C(=O)Nc2cc(OC)ccc2OC)c1=O | inconclusive: 4.61 µM [activator, full curve] | 
O=C(NC1=NCCS1)c1ccc(Br)s1 | inconclusive: 3.26 µM [activator, full curve] | 
CN(C)c1ccc(S(=O)(=O)NCC(=O)N2CCN(S(=O)(=O)c3cccc(F)c3)CC2)cc1[N+](=O)[O-] | inconclusive: 8.2 µM [falling, partial curve, poor fit] | 
COC(=O)C1=C(C)NC(C)=C(C(=O)OC)C1C(=O)OC(C)C(=O)c1ccccc1 (stereo not given) | inconclusive: 29.1 µM [falling, partial curve, poor fit] | 
CCN(CC)C(=O)CSc1nc(-c2ccco2)cc(C(F)(F)F)c1C#N | inconclusive: 5.17 µM [falling, full curve] | 
CCOc1ccccc1NC(=O)C1CCN(S(=O)(=O)c2ccc3c(c2)CC(C)N3C(C)=O)CC1 (stereo not given) | inconclusive: 29.1 µM [falling, single point] | 
COc1ccc(S(=O)(=O)N2CCOC2CNC(=O)C(=O)NCCN(C)C)cc1 (stereo not given) | inconclusive: 2.06 µM [falling, partial curve, poor fit] | 
CCOc1ccc(NCc2cc3c(C(C)(C)C)nn(-c4ccccc4)c3[nH]c2=O)cc1 | inconclusive: 29.1 µM [falling, single point] | 
Cc1cc(C(=O)NC(=S)Nc2cccc(NC(=O)C(C)C)c2)ccc1[N+](=O)[O-] | inconclusive: 32.6 µM [falling, single point] | 
Cc1sc2ncnc(N3CCC(C(=O)Nc4ccccc4C(C)(C)C)CC3)c2c1C | inconclusive: 18.4 µM [falling, single point] | 
CCOC(=O)c1c(NC(=O)c2cc(-c3ccc(O)cc3)on2)sc(C(C)=O)c1C | inconclusive: 4.11 µM [falling, single point] | 
CCC(C)[C@H](NC(=O)OC(C)(C)C)C(=O)N/N=C/c1cccc2nccnc12 (stereo not given in full) | inconclusive: 29.1 µM [falling, single point] | 
CC(C)(C#N)Nn1cnnc1 | inconclusive: 29.1 µM [activator, single point] | 

Compound | Potency | activity change, negative = inhibition
CC(C)CC(N=Cc1c(O)c2ccccc2oc1=O)C(=O)O (stereo not given) | inconclusive: 3.26 µM [falling, partial curve, poor fit] | 
Cc1cccc(Nc2nc(CC(=O)O)cs2)c1 | inconclusive: 29.1 µM [activator, single point] | 
O=C1SC(Nc2ccccc2)C(=O)N1c1ccccc1 (stereo not given) | inconclusive: 25.9 µM [activator, single point] | 
N#Cc1cc(Oc2ccccc2)c(-n2nnc3ccccc32)cc1C#N | inconclusive: 0.0206 µM [falling, full curve, poor fit] | 
COc1ccc(-n2ncc(C(=O)NCCc3ccsc3)c2C2CCN(C(=O)OC(C)(C)C)CC2)cc1 | inconclusive: 29.1 µM [falling, single point] | 
Cc1nc(C)c(-c2ccc(SCC(=O)Nc3cccc(Cl)c3)nn2)s1 | inconclusive: 2.91 µM [falling, full curve] | 
O=C(O)C1C2CCC(C2)C1C(=O)Nc1nc2ccccc2s1 (stereo not given) | inconclusive: 25.9 µM [activator, single point] | 
COc1cccc(-c2cc3nc4c(c(N5CCC6(CC5)OCCO6)n3n2)CCC4)c1 | inconclusive: 8.2 µM [falling, partial curve] | 
COc1cccc(-c2nc(-c3ccccc3)no2)c1 | inconclusive: 2.59 µM [activator, full curve] | 
O=C(O)CSc1nc(-c2cccs2)cc(C(F)(F)F)n1 | inconclusive: 29.1 µM [falling, partial curve, poor fit] | 
O=c1c2cnn(-c3ccccc3)c2ncn1Cc1ccccc1 | inconclusive: 20.6 µM [falling, single point] | 
Cc1cc(NC(=O)c2cccc(Cl)c2)ccc1-c1cc2ccccc2oc1=O | inconclusive: 32.6 µM [falling, single point] | 
N#Cc1c(-c2cccnc2)c2c([nH]c1=O)-c1ccccc1OC2 | inconclusive: 29.1 µM [falling, partial curve, poor fit] | 
CCC1(c2ccccc2)NC(=O)N(CC(=O)Nc2cc(S(=O)(=O)N3CCCCC3)ccc2N(C)C)C1=O (stereo not given) | inconclusive: 14.6 µM [falling, partial curve, poor fit] | 
c1ccc(-c2csc(N3CCSCC3)n2)cc1 | inconclusive: 29.1 µM [activator, single point] | 
CN(c1ccccc1)S(=O)(=O)c1ccc(NC(=O)c2cc(=O)c3ccccc3o2)cc1 | inconclusive: 23.1 µM [falling, single point] | 
CN(Cc1ccccc1)C(=O)c1ccc(NC(=O)Cc2ccc(NC(=O)C3CCN(S(=O)(=O)c4cccc([N+](=O)[O-])c4)CC3)cc2)cc1 | inconclusive: 20.6 µM [falling, single point] | 
Cn1c(C(=O)c2ccccc2)nc2ccccc21 | inconclusive: 11.6 µM [activator, partial curve, poor fit] | 
CSc1nsc(SCC(=O)Nc2ccc3c(c2)OCCO3)n1 | inconclusive: 6.51 µM [activator, partial curve] | 
O=C(/C=C/c1ccccc1Cl)Nc1cccnc1 | inconclusive: 6.51 µM [activator, full curve] | 

— PubChem BioAssay AID504444 (National Center for Advancing Translational Sciences (NCATS), 2011)
